{
  "source": "PubChem BioAssay AID1347076",
  "about": "(National Center for Advancing Translational Sciences (NCATS), 2019)",
  "note": "The campaign covered roughly 400,000 compounds. About 13,000 (3.2%) were called active. This list was built around the results that the source calls inconclusive (neither active nor inactive); the mix of calls is not that of the screen. Calls follow the shape of the dose curve; as a rule, active = well fitted cell-killing curve with a large enough effect; inconclusive = small, poorly fitted or top-dose-only effect, or effect the other way; inactive = flat fitted curve, though single readings scatter. Where the call is inconclusive, the potency comes from a doubtful curve fit. % is scaled to controls: 0 for no effect and ±100 for the full control effect; potency is read from the fitted curve at half-maximal effect.",
  "data": [
    {"experiment": "qHTS assay for MDR1-selective chemotherapeutics: Primary screen using the drug-selected MDR subline cells KB-V1; also: nearly all actives have a fitted effect of over 60% in size", "conditions": "KB-V1 MDR cells viability, CellTiter-Glo, 72 h; activity change, negative = cytotoxicity: at 46.1 µM (top of the series)", "summary_of_the_method": "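qHTS viability screen in drug-selected KB-V1 MDR cells: 72 h compound treatment at 37 degrees C, ATP luminescence end point.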", "values": [
      {"smiles": "CC(C)c1ccc(CN2CCC2(C)C(=O)Nc2cccc(Oc3ccccc3)c2)cc1", "note": "(configuration not stated)", "Potency": "inactive"},
      {"smiles": "O=C(Nc1cccc(F)c1)c1ccc(-c2ccccc2)s1", "Potency": "inactive"},
      {"smiles": "COc1cc(Cl)cc2c1Sc1ccccc1/C2=C/CCN(C)C", "Potency": "inconclusive: 18.4 µM [cytotoxic, single point]"},
      {"smiles": "Cn1c(SCC(=O)Nc2nc3ccccc3s2)nnc1-c1ccccc1", "Potency": "inactive"},
      {"smiles": "O=C(CCC(=O)N1CCN(S(=O)(=O)c2cccc(F)c2)CC1)c1cccs1", "Potency": "inconclusive: 10.3 µM [cytotoxic, partial curve, poor fit]"},
      {"smiles": "CN(C)S(=O)(=O)c1cccc(NC(=O)C2Cc3ccccc3CN2C(=O)c2ccco2)c1", "note": "(configuration not stated)", "Potency": "inactive"},
      {"smiles": "Cc1cccc(NS(=O)(=O)c2ccc3c(c2)CCN3C(=O)C2CCC2)c1", "Potency": "inconclusive: 0.146 µM [cytotoxic, full curve]"},
      {"smiles": "CCOC(=O)c1ccc(S(=O)(=O)N2CCN(CC3CC=CCC3)CC2)cc1", "note": "(configuration not stated)", "Potency": "inconclusive: 23.1 µM [cytotoxic, partial curve]"},
      {"smiles": "O=C(OC1CC2CC1[C@H]1CCCCN1C2=O)N1CCN(C(=O)c2ccccc2)CC1", "note": "(some centres not stated)", "Potency": "inconclusive: 16.4 µM [rising, single point]"},
      {"smiles": "CCOC(=O)c1c(N)sc2c1CCCC2", "Potency": "inconclusive: 29.1 µM [cytotoxic, single point]"},
      {"smiles": "Cc1ccc(N(C(=O)c2csnn2)C(C(=O)NC2CCCCC2)c2ccncc2)c(C)c1", "note": "(configuration not stated)", "Potency": "inconclusive: 9.2 µM [cytotoxic, partial curve]"},
      {"smiles": "NS(=O)(=O)c1ccc(NC(=O)CSc2nc3ccccc3n2-c2ccccc2)cc1", "Potency": "inactive"},
      {"smiles": "CCOC(=O)C1=C(Nc2ccc(OC)cc2)C(N)=NC1=N", "Potency": "active: 1.84 µM"},
      {"smiles": "Cc1ccc(S(=O)(=O)c2cn(Cc3ccccc3Cl)c3ccc(F)cc3c2=O)cc1", "Potency": "inactive"},
      {"smiles": "O=C1CCCC2=C1C(c1ccc(OS(=O)(=O)c3ccc(Cl)cc3)cc1)C1=C(CCCC1=O)O2", "Potency": "active: 4.61 µM"},
      {"smiles": "Cc1ccc(-n2nnnc2C(Cl)(Cl)c2nnnn2-c2ccc(C)cc2)cc1", "Potency": "inconclusive: 23.1 µM [cytotoxic, single point]"},
      {"smiles": "O=[N+]([O-])c1ccc(O)c(-c2nn[nH]n2)c1", "Potency": "inconclusive: 29.1 µM [rising, single point]"},
      {"smiles": "CC(C)C(=O)Nc1ccc(-c2nc3cccnc3o2)cc1", "Potency": "inconclusive: 9.2 µM [cytotoxic, partial curve, poor fit]"},
      {"smiles": "CCCCc1n[nH]c2c1/C(=N/OCC)CC(C)(C)C2", "Potency": "inconclusive: 29.1 µM [cytotoxic, single point]"},
      {"smiles": "CC1CC(C)(C)CC2(C1)NC(=O)N(CC(=O)NC1CCCc3ccccc31)C2=O", "note": "(configuration not stated)", "Potency": "active: 20.6 µM"},
      {"smiles": "Cc1ccc(CN2C(=O)c3ccccc3Sc3ccc(C(=O)OCc4ccco4)cc32)cc1", "Potency": "inconclusive: 9.2 µM [cytotoxic, partial curve]"},
      {"smiles": "CN(Cc1nc(-c2ccc(C(F)(F)F)cc2)no1)C1CCOCC1", "Potency": "inconclusive: 29.1 µM [rising, partial curve, poor fit]"},
      {"smiles": "Cc1nc2c(ccc3nc(NC(=O)Cc4cccc5ccccc45)sc32)s1", "Potency": "inactive"},
      {"smiles": "CCCCn1c(SCC(=O)Nc2cc(C)on2)nc2c1c(=O)n(C)c(=O)n2C", "Potency": "active: 14.6 µM"},
      {"smiles": "OC(CNCc1ccc(F)cc1)(c1ccc(F)cc1)c1ccc(F)cc1", "Potency": "inconclusive: 8.91 µM [cytotoxic, partial curve]"},
      {"smiles": "CC1CC(C)CN(CCCCOc2ccc([N+](=O)[O-])cc2)C1", "note": "(configuration not stated)", "Potency": "inconclusive: 10.3 µM [cytotoxic, partial curve]"},
      {"smiles": "CC1Cc2cc(S(=O)(=O)N(Cc3ccccc3)C(C)C)ccc2N1C(=O)C1CCC1", "note": "(configuration not stated)", "Potency": "inconclusive: 18.4 µM [cytotoxic, partial curve, poor fit]"},
      {"smiles": "COc1ccccc1NC(=O)Cn1nnc(-c2ccccc2NC(=O)c2ccco2)n1", "Potency": "inconclusive: 2.06 µM [cytotoxic, partial curve, poor fit]"},
      {"smiles": "COc1ccc(Cl)cc1C(=O)C1CCCN(Cc2cnc(N3CCOCC3)s2)C1", "note": "(configuration not stated)", "Potency": "inconclusive: 4.11 µM [cytotoxic, partial curve]"},
      {"smiles": "Cc1ccc(SC(CC(=O)c2ccc(C)cc2)C(=O)O)cc1", "note": "(configuration not stated)", "Potency": "inconclusive: 14.6 µM [rising, partial curve]"},
      {"smiles": "C=CCSc1nc2sc3c(c2c(=O)n1CC)CCc1ccccc1-3", "Potency": "inactive"},
      {"smiles": "C=CC(=O)NCc1ccc(-c2csnn2)cc1", "activity change, negative = cytotoxicity": "inconclusive: 44.4%"},
      {"smiles": "C[C@@H](NC(=O)[C@@H]1CCCN1C(=O)[C@@H]1CCCN1C(=O)c1cccc(Cl)c1)c1ccccc1", "Potency": "inactive"},
      {"smiles": "Cc1nc(NC(=O)C2CC2)sc1C(=O)Nc1ccccc1Cl", "Potency": "inconclusive: 20.6 µM [cytotoxic, single point]"},
      {"smiles": "CN(C)S(=O)(=O)c1ccc(C(=O)Nc2ccc(OCC(=O)N3CCOCC3)cc2)cc1", "Potency": "inconclusive: 20.6 µM [rising, partial curve, poor fit]"},
      {"smiles": "O=C(O)c1cccc(-n2nc(-c3ccc(Cl)c([N+](=O)[O-])c3)c3ccccc3c2=O)c1", "Potency": "inconclusive: 3.26 µM [rising, full curve]"},
      {"smiles": "CCCCOc1cccc(OCCCC)c1C(=O)Nc1cc(C)on1", "Potency": "inconclusive: 18.4 µM [cytotoxic, single point]"},
      {"smiles": "CC(=O)Nc1ccc(S(=O)(=O)NC2(C(F)(F)F)NC(=O)N(CCc3ccc(F)cc3)C2=O)cc1", "note": "(configuration not stated)", "Potency": "inactive"},
      {"smiles": "O=C(Nc1ccc(C2CC2(Cl)Cl)cc1)c1cccc([N+](=O)[O-])c1", "note": "(configuration not stated)", "Potency": "inconclusive: 18.4 µM [cytotoxic, single point]"},
      {"smiles": "Cc1cc2cc(C(c3nnnn3C3CCCC3)N(Cc3cccnc3)Cc3ccco3)c(=O)[nH]c2cc1C", "note": "(configuration not stated)", "Potency": "inactive"},
      {"smiles": "Cc1cc[n+](C(C)C(=O)c2ccc(Cl)cc2)cc1", "note": "(configuration not stated)", "activity change, negative = cytotoxicity": "inconclusive: 0.26%"},
      {"smiles": "CCOc1ccc(S(=O)(=O)Nc2ncn[nH]2)cc1", "Potency": "inconclusive: 25.9 µM [rising, single point]"},
      {"smiles": "CC(C)(C)C(=O)N(Cc1ccc(Cl)cc1)Cc1cccnc1", "Potency": "inconclusive: 20.6 µM [cytotoxic, single point]"},
      {"smiles": "COc1cccc(C(=O)Nc2ccccc2-c2nnc(-c3cccc(OC)c3)o2)c1", "Potency": "inactive"},
      {"smiles": "Cc1ccc2c(Cl)c(C)c(N3CCCCC3)nc2n1", "Potency": "inconclusive: 29.1 µM [cytotoxic, single point]"},
      {"smiles": "CSc1nc(SC(C)C(=O)O)c2c3c(sc2n1)COC(C)(C)C3", "note": "(configuration not stated)", "Potency": "inactive"},
      {"smiles": "Cc1ccc(-n2c(SCC(N)=O)nc3c(oc4ccccc43)c2=O)cc1C", "Potency": "inactive"},
      {"smiles": "CCOc1cc(CNC(=O)Cn2c(-c3cccs3)cc3cc(F)ccc32)ccc1OC", "Potency": "active: 11.6 µM"},
      {"smiles": "O=C(c1ccccc1F)N(Cc1nc2ccccc2c(=O)[nH]1)C1CCCC1", "Potency": "inactive"},
      {"smiles": "Cc1cc(C)n2nc(C(=O)OCCOc3cccc(Br)c3)nc2n1", "Potency": "inactive"},
      {"smiles": "Nc1c(-c2ccc(Cl)cc2)cnc2ncnn12", "Potency": "inconclusive: 20.6 µM [cytotoxic, partial curve, poor fit]"},
      {"smiles": "CCCCNc1c2c(nc3c(-c4ccccc4)c(C)nn13)CCC2", "Potency": "active: 23.1 µM"},
      {"smiles": "Cc1sc2ncnc(NCc3ccco3)c2c1C", "Potency": "active: 2.59 µM"},
      {"smiles": "O=Cc1cn(CCC(=O)O)nc1-c1cc2ccccc2o1", "Potency": "inconclusive: 23.1 µM [rising, partial curve, poor fit]"},
      {"smiles": "CCOC(=O)c1c(NC(=O)CNCCO)sc(C)c1C", "Potency": "inconclusive: 3.66 µM [cytotoxic, full curve]"},
      {"smiles": "CC(=O)c1c(O)cc(=O)n(-c2ccccc2)c1-c1cccc2ccccc12", "Potency": "inconclusive: 29.1 µM [rising, single point]"},
      {"smiles": "Cn1cc(S(=O)(=O)c2ccccc2)c(=O)c2cc(F)c(N3CCCCCC3)cc21", "Potency": "inactive"},
      {"smiles": "Cc1nnc2sc(-c3ccc(-c4ccc(Cl)c(C(F)(F)F)c4)o3)nn12", "Potency": "active: 14.6 µM"},
      {"smiles": "Cc1csc(NC(=O)C2CCCN2C(=O)Oc2ccccc2)n1", "note": "(configuration not stated)", "Potency": "inactive"},
      {"smiles": "Cc1ccccc1NC(=O)c1cc(-c2ccco2)nc2ccccc12", "Potency": "inactive"},
      {"smiles": "CCOc1ccc(NC(=O)COC(=O)CCC(=O)c2cccs2)cc1", "Potency": "inactive"},
      {"smiles": "O=C1NC2(CCCCCC2)C(=O)N1Cc1ccc(Cl)cc1Cl", "Potency": "inconclusive: 14.6 µM [cytotoxic, partial curve]"},
      {"smiles": "CC(C)C[C@H]1CN([C@@H](CC(C)C)CN2CCCC2CN2C(=S)NC[C@@H]2Cc2ccc(O)cc2)C(=S)N1CC1CCCCCC1", "note": "(some centres not stated)", "Potency": "inconclusive: 29.1 µM [cytotoxic, partial curve, poor fit]"},
      {"smiles": "CC(=O)Nc1cccc(C(=O)N/N=C/c2cccnc2)c1", "Potency": "inconclusive: 32.6 µM [rising, single point]"},
      {"smiles": "CCCCCC1CC(CC(=O)NC(=S)Nc2ccc([N+](=O)[O-])cc2)C(=O)O1", "note": "(configuration not stated)", "Potency": "inactive"},
      {"smiles": "Cn1c(=O)n(C)c2cc(N3CCCCC3)c(NC(=O)c3ccc(C(C)(C)C)cc3)cc21", "Potency": "inconclusive: 20.6 µM [rising, single point]"},
      {"smiles": "COc1ccc(/C=C/C(=O)NC(=S)NNC(=O)c2cnccn2)cc1", "Potency": "inconclusive: 0.184 µM [cytotoxic, full curve, poor fit]"},
      {"smiles": "COc1ccc(CNC(=O)CCc2nc(-c3ccc(C)cc3)no2)c(OC)c1", "Potency": "inconclusive: 20.6 µM [cytotoxic, partial curve, poor fit]"},
      {"smiles": "NC(=O)CSc1nnc(COc2ccccc2)n1CCc1ccccc1", "Potency": "inactive"},
      {"smiles": "COC(=O)[C@]1(Cc2ccccc2)N[C@H](c2ccc(-c3cccc(Cl)c3)c(OC)c2)[C@@H]2C(=O)N(C)C(=O)[C@@H]21", "Potency": "inactive"},
      {"smiles": "Fc1ccccc1/C=C1\\CCCC2=C1NC(=S)NC2c1ccccc1F", "note": "(configuration not stated)", "Potency": "inconclusive: 8.2 µM [cytotoxic, partial curve]"},
      {"smiles": "COc1ccc(COc2cc(-c3cccc(OC)c3)nc3ccc(NC(=O)C(C)C)cc23)cc1", "activity change, negative = cytotoxicity": "inconclusive: -32.8% [cytotoxic]"}
    ]}
  ]
}
